The text below walks through data of PubChem BioAssay AID2685 (National Center for Advancing Translational Sciences (NCATS), 2010).

This is one part of the list. Further columns of the screen follow, without active or inactive calls. The list favours compounds with an active or inconclusive main result. Words in brackets tell the shape of the fitted curve; partial curves, single points and poor fits give uncertain potencies.

This assay can be described thus: qHTS Assay for Lipid Storage Modulators in Drosophila S3 Cells.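 As to cell number change: cells counted by Cell Tracker Red CMTPX staining in the red channel.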 Particulars: BODIPY lipid droplet fluorescence, 18-24 h; for cell number change: measured here: cell count max response, cells fed with added oleic acid. The procedure, abridged:
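Laser-scanning cytometry quantifies lipid droplet accumulation (500–530 nm total intensity; droplet/cell object ratio) in oleic acid-fed (400 uM added) Drosophila S3 cells treated with a concentration series. 20 uM Triacsin C defined 100% inhibition.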

[1] abbreviates: measured here: lipid fluorescence (Fed channel) AC50, cells fed with added oleic acid.
Setting [2] is: measured here: cell number channel AC50, cells fed with added oleic acid.

In the case of `COc1ccc(C(=O)NCC(=O)Nc2ccc(-c3ccccc3)cc2)cc1`, the cell number change stood at 8.57%. Under setting [1], the half-maximal activity concentration (AC50) was 0.206 µM [rising, single point].
As to `COCc1nnc(NC(=O)c2cccc(NC(=O)c3ccccc3)c2)s1`, the cell number change is -1.08%. For the same compound, the AC50 under setting [1] was 0.0366 µM [rising, partial curve, poor fit].
For `CN(Cc1nc(-c2ccccc2)no1)C1CCOCC1`, the cell number change was -2.97%. Further, under setting [1], the half-maximal activity concentration (AC50) is 0.731 µM [falling, full curve, poor fit].
As to `CC(OC(=O)c1ccc(O)cc1)C(=O)Nc1nc(-c2ccccc2)cs1` (centres undefined), the cell number change is -35.3%. Moreover, under setting [2], the half-maximal activity concentration (AC50) was 11.6 µM [falling, partial curve, poor fit].
Consider `COc1ccc(OC)c(NC(=O)c2ccc(Cl)cc2)c1`, for which the cell number change turned out to be 14.2%. Moreover, the half-maximal activity concentration (AC50) under setting [1] was 0.013 µM [rising, full curve, poor fit].
On to `CCC(C)[C@H](NC(=O)N1CC(=O)Nc2ccccc21)C(=O)Nc1nccs1` (some centres undefined), for which the AC50 under setting [2] is 1.64 µM [falling, partial curve].
`CC(=O)NC(CC(=O)Nc1cc(Cl)ccc1-n1cncn1)c1ccccc1` (centres undefined): the cell number change came out at 30.5%. Also, the concentration at half-maximal activity (AC50) under setting [2] is 2.59 µM [rising, full curve, poor fit].
Take `COc1ccc(CCNC(=O)c2ccc(=O)[nH]c2)cc1`: the cell number change is -36.6%. Moreover, the AC50 under setting [2] is 0.164 µM [falling, full curve, poor fit]. Under setting [1], the AC50 is 0.366 µM [falling, full curve].
In the case of `Cc1ccc(CS/C(Nc2ccccc2C)=C(\C#N)C(=O)NCc2ccco2)c(C)c1`, the cell number change is -22.3%. Moreover, the concentration at half-maximal activity (AC50) under setting [1] was 29.1 µM [falling, single point].
As to `Cc1ccc(CNC(=O)c2ccc3c(c2)NC(=O)C(N2CCOCC2)S3)cc1` (centres undefined), the cell number change was 36.3%. Besides, the half-maximal activity concentration (AC50) under setting [2] is 6.51 µM [rising, partial curve]. The concentration at half-maximal activity (AC50) under setting [1] is 29.1 µM [rising, single point].
As to `Cc1csc(=O)n1CCC(=O)OCC(=O)Nc1ccc(C(N)=O)cc1`, the cell number change was 9.09%.
With `CCC1(C)NC(=O)N(CC(=O)c2cc(C)n(C3CC3)c2C)C1=O` (centres undefined), the cell number change is -0.107%. Besides, the concentration at half-maximal activity (AC50) under setting [1] is 23.1 µM [rising, single point].
As for `Cc1ccc2c(c1C)NC(=O)CC(c1ccccc1O)=N2`, the cell number change is -0.0735%. Also, the AC50 under setting [1] was 6.51 µM [rising, single point].
As to `O=C(Nc1ccc(N2CCN(C(=O)c3ccco3)CC2)cc1)c1ccc(Br)cc1`, the cell number change was -12.6%. For the same compound, the AC50 under setting [1] was 23.1 µM [rising, partial curve].
As for `CC(=O)C1C(c2ccc(F)cc2)C2C(C)=NN=C2CC1(C)O` (centres undefined), the cell number change was determined as 35.9%. Besides, under setting [2], the AC50 is 29.1 µM [rising, single point].
Regarding `O=C(O)/C=C/c1cn(Cc2ccccc2)nc1-c1ccc(Cl)cc1`, the cell number change turned out to be 6.38%.
As for `CCn1c(C)nc2cc(C#N)ccc21`, the cell number change worked out at 171%. Further, the AC50 under setting [2] is 14.6 µM [rising, partial curve]. Moreover, the AC50 under setting [1] was 18.4 µM [rising, partial curve].
On to `CC(C)(C)c1ccc(OCCCNC2CCCC2)cc1`, for which the cell number change was -21.4%.
`COc1ccc(NC(=O)C2CCN(S(=O)(=O)c3c(C)noc3C)CC2)cc1`: the cell number change turned out to be 18.3%. Besides, the half-maximal activity concentration (AC50) under setting [1] was 0.731 µM [rising, single point].
For `Cc1ccc(CCNC(=O)Cn2ccc3cc(S(=O)(=O)N4CCCC4)ccc32)cc1`, the cell number change was -7.25%. The AC50 under setting [1] is 29.1 µM [falling, single point].
Consider `O=C(COC(=O)c1ccco1)Nc1ccccc1`, for which the cell number change was -26%. Further, the AC50 under setting [2] is 0.0517 µM [falling, full curve, poor fit]. Besides, the half-maximal activity concentration (AC50) under setting [1] was 0.0517 µM [falling, full curve, poor fit].
Take `Cc1occc1C(=O)N/N=C/c1c(O)ccc2ccccc12`: the cell number change amounted to 79.2%. The AC50 under setting [2] was 20.6 µM [rising, partial curve].
`CCn1c(SCC(=O)Nc2nc(-c3ccccc3)cs2)nnc1-c1ccccc1O`: the cell number change was -22%. The AC50 under setting [1] is 7.31 µM [falling, single point].
On to `C/C(=N\NC(=O)c1cccs1)c1ccc2c(c1)OCO2`, for which the AC50 under setting [1] was 0.116 µM [rising, full curve, poor fit].
Turning to `Cc1cccc(N2CCN(C(=O)c3ccc4c(c3)OCCO4)CC2)c1C`, the cell number change is 40.6%. Further, the AC50 under setting [2] was 13 µM [rising, partial curve, poor fit]. Moreover, the AC50 under setting [1] is 29.1 µM [rising, single point].
On to `O=C(Nc1ccc([N+](=O)[O-])cc1)c1cccc(S(=O)(=O)Nc2ccccn2)c1`, for which the cell number change was 48.3%. For the same compound, the AC50 under setting [2] is 32.6 µM [rising, single point]. Further, the AC50 under setting [1] is 4.11 µM [falling, single point].
`O=S(=O)(c1ccc2nc(-c3ccccc3)[nH]c2c1)N1CCN(c2ccc(Cl)cc2)CC1`: the cell number change was -18.6%. For the same compound, under setting [2], the AC50 was 0.164 µM [falling, full curve, poor fit]. For the same compound, the AC50 under setting [1] was 1.84 µM [falling, full curve, poor fit].
Turning to `CC(Sc1ncc(C(F)(F)F)cc1Cl)C(=O)NCC1CCCO1` (centres undefined), the AC50 under setting [2] was 0.411 µM [rising, single point] and the AC50 under setting [1] is 1.03 µM [rising, partial curve, poor fit].
Regarding `Cc1ccc(C(=O)N/N=C2\CCSC2)cc1[N+](=O)[O-]`, the cell number change turned out to be 32.8%. Further, the half-maximal activity concentration (AC50) under setting [2] was 5.17 µM [rising, partial curve]. Further, the AC50 under setting [1] was 1.16 µM [rising, full curve, poor fit].
Turning to `Cc1ccc2c(c1)COc1c3ccc(C(=O)NCC4CC4)cc3nn1-2`, the cell number change was determined as 3.34%. Further, the AC50 under setting [1] is 3.66 µM [rising, partial curve, poor fit].
Consider `Fc1cccc(CN2CCCCCCC2)c1`, for which the cell number change came out at 22.9%. The AC50 under setting [2] was 0.0058 µM [rising, full curve, poor fit].
Turning to `CN(CC1CCOCC1)C(=O)CC1C(=O)NCCN1Cc1ccccc1F` (centres undefined), the cell number change was -10.3%.
Take `O=C1/C(=C\c2ccco2)SC(=S)N1Cc1ccccc1`: the cell number change is -16%.
Regarding `Cc1ccc(N2CCN(S(=O)(=O)c3nnc(NC(=O)c4ccccc4)s3)CC2)cc1`, the cell number change came to 13.5%. Under setting [1], the AC50 was 5.8 µM [rising, full curve, poor fit].
On to `CCCc1cc(=O)[nH]c(SCC(=O)N(C)CC(=O)Nc2ccccc2CC)n1`, for which the cell number change was -18.8%. Also, the concentration at half-maximal activity (AC50) under setting [1] is 8.2 µM [falling, partial curve].
Regarding `CCCC(=O)Nc1cc(C)cn(Cc2c(F)cccc2Cl)c1=O`, the AC50 under setting [1] is 0.116 µM [falling, full curve, poor fit].
With `NC(=O)CC(NC(=O)Cc1ccc(Br)cc1)c1ccc(NC2CCCCCC2)c([N+](=O)[O-])c1` (centres undefined), the cell number change stood at 16.2%. Besides, the AC50 under setting [1] is 7.31 µM [rising, partial curve].
